Test results: the supplement of paper PMC4604168 (melanoma cell lines)
Some of the results follow. Many values rest on one well or one pass, so single values are uncertain.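 Cells were imaged in 1,536-well plates, and nuclei stained with an antibody against cleaved PARP were counted against all DNA-stained nuclei to give the apoptosis fraction. Screening doses were chosen to leave most cells alive, and resting and induced cleaved-PARP levels differ strongly between cell lines.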

Tests used:
Experiment in all cases: cleaved PARP positive nuclei fraction relative to DMSO control; melanoma cells; higher = more apoptosis
Conditions in all cases: library dose: low library concentration; 72 h
[1] = system: MZ2-MEL
[2] = system: MeWo
[3] = system: RPMI7951
[4] = system: RVH-421
[5] = system: SkMel28
[6] = system: SkMel2
[7] = system: SkMel30
[8] = system: UACC62
[9] = system: WM115
[10] = system: WM1716
[11] = system: WM1745
[12] = system: WM3526
[13] = system: WM3619
[14] = system: WM451Lu

| SMILES | cleaved PARP positive nuclei fraction [1] | cleaved PARP positive nuclei fraction [2] | cleaved PARP positive nuclei fraction [3] | cleaved PARP positive nuclei fraction [4] | cleaved PARP positive nuclei fraction [5] | cleaved PARP positive nuclei fraction [6] | cleaved PARP positive nuclei fraction [7] | cleaved PARP positive nuclei fraction [8] | cleaved PARP positive nuclei fraction [9] | cleaved PARP positive nuclei fraction [10] | cleaved PARP positive nuclei fraction [11] | cleaved PARP positive nuclei fraction [12] | cleaved PARP positive nuclei fraction [13] | cleaved PARP positive nuclei fraction [14] |
| --- | --- | --- | --- | --- | --- | --- | --- | --- | --- | --- | --- | --- | --- | --- |
| Cc1cc(Nc2cc(N3CCN(C)CC3)nc(/C=C/c3ccccc3)n2)n[nH]1 + C[C@@H](Oc1cc(-c2cnn(C3CCNCC3)c2)cnc1N)c1c(Cl)ccc(F)c1Cl [Crizotinib] (first compound 0.04 µM, partner dose 0.2 µM) | 109% | 83.9% | 150% | 27.4% | 45% | 85.3% | 14.6% | 121% | 157% | 133% | 128% | 49.5% | 71.7% | 58.5% |
| CN1CCN(c2ccc3nc(-c4c(N)c5c(F)cccc5[nH]c4=O)[nH]c3c2)CC1 [Dovitinib] + OCc1c[nH]c2ccccc12 [Indole-3-carbinol] (first compound 0.1 µM, partner dose 0.8 µM) | 70.3% | 135% | 59.4% | 73.7% | 41.6% | 94.9% | 161% | 65.6% | 108% | 149% | 112% | 52.3% | 79.7% | 30.8% |
| O=C(O)[C@@H]1[O][Sb](=[O])([O][Sb]2(=[O])[O][C@H]([C@H](O)CO)[C@H](O)[C@H](C(=O)O)[O]2)[O][C@H]([C@H](O)CO)[C@@H]1O (stereo partly specified) [stibogluconate] + COCC[n+]1c2c(n(Cc3cnccn3)c1C)C(=O)c1ccccc1C2=O [YM155] (first compound 2 µM, partner dose 0.0004 µM) | 159% | 71.5% | 57.8% | 108% | 48.5% | 108% | 82.9% | 33.4% | 90.8% | 232% | 91.8% | 125% | 88% | 25.4% |
| Cc1cc(Nc2cc(N3CCN(C)CC3)nc(/C=C/c3ccccc3)n2)n[nH]1 + C[C@]1(c2nc3c(C(N)=O)cccc3[nH]2)CCCN1 [Veliparib] (first compound 0.04 µM, partner dose 1.4 µM) | 87.7% | 144% | 96.2% | 92.2% | 47.5% | 94.6% | 88% | 145% | 96.1% | 145% | 86.7% | 53.9% | 73% | 103% |
| Nc1ncn([C@H]2C[C@H](O)[C@@H](CO)O2)c(=O)n1 [decitabine] + C#Cc1cccc(Nc2ncnc3cc(OCCOC)c(OCCOC)cc23)c1 [erlotinib] (first compound 0.1 µM, partner dose 0.8 µM) | 44.8% | 90.2% | 98.1% | 110% | 48.8% | 79.5% | 40.5% | 297% | 161% | 56.3% | 105% | 42.6% | 111% | 43.1% |
| CCCS(=O)(=O)Nc1ccc(F)c(C(=O)c2c[nH]c3ncc(Cl)cc23)c1F + Cn1nnc2c(C(N)=O)ncn2c1=O [temozolomide] (first compound 0.08 µM, partner dose 2 µM) | 120% | 158% | 77.6% | 139% | 48.2% | 58.8% | 232% | 420% | 87.8% | 345% | 96.1% | 250% | 100% | 54% |
| CNC(=O)c1cc(Oc2ccc(NC(=O)Nc3ccc(Cl)c(C(F)(F)F)c3)cc2)ccn1 [sorafenib] + Nc1cccc2c1CN(C1CCC(=O)NC1=O)C2=O [lenalidomide] (first compound 0.4 µM, partner dose 1 µM) | 41.5% | 145% | 64.9% | 73.6% | 210% | 127% | 33.2% | 49.2% | 128% | 168% | 110% | 143% | 98.4% | 114% |
| Cc1cc(Nc2cc(N3CCN(C)CC3)nc(/C=C/c3ccccc3)n2)n[nH]1 + CS(=O)(=O)CCNCc1ccc(-c2ccc3ncnc(Nc4ccc(OCc5cccc(F)c5)c(Cl)c4)c3c2)o1 [lapatinib] (first compound 0.04 µM, partner dose 0.8 µM) | 187% | 18.2% | 136% | 220% | 97.7% | 50% | 31% | 57% | 34.6% | 69.4% | 105% | 208% | 97.4% | 282% |
| C[C@@H](Oc1cc(-c2cnn(C3CCNCC3)c2)cnc1N)c1c(Cl)ccc(F)c1Cl [Crizotinib] + C[C@]1(c2nc3c(C(N)=O)cccc3[nH]2)CCCN1 [Veliparib] (first compound 0.2 µM, partner dose 1.4 µM) | 64.8% | 61.2% | 166% | 184% | 89.5% | 118% | 23.5% | 52.5% | 41% | 100% | 108% | 90.9% | 84.4% | 39.7% |
| C=C(c1ccc(C(=O)O)cc1)c1cc2c(cc1C)C(C)(C)CCC2(C)C [Bexarotene] + Nc1ccn([C@@H]2O[C@H](CO)[C@@H](O)C2(F)F)c(=O)n1 [gemcitabine] (first compound 2 µM, partner dose 0.0004 µM) | 97.6% | 88% | 250% | 65.1% | 45.4% | 90.4% | 30.5% | 43.6% | 47% | 167% | 226% | 94.9% | 104% | 45.9% |
| O=C(O)c1ccc2c(c1)nc(Nc1cccc(Cl)c1)c1ccncc12 + CC(=O)c1c(C)c2cnc(Nc3ccc(N4CCNCC4)cn3)nc2n(C2CCCC2)c1=O [palbociclib] (first compound 0.4 µM, partner dose 0.04 µM) | 80.1% | 126% | 92% | 49.6% | 100% | 111% | 121% | 147% | 55.2% | 173% | 228% | 228% | 106% | 114% |
| CCCS(=O)(=O)Nc1ccc(F)c(C(=O)c2c[nH]c3ncc(Cl)cc23)c1F + Clc1ccc(Nc2nnc(Cc3ccncc3)c3ccccc23)cc1 [vatalanib] (first compound 0.08 µM, partner dose 2 µM) | 79.7% | 34.6% | 311% | 187% | 77.2% | 67.1% | 57.6% | 371% | 34.9% | 29.1% | 122% | 49.8% | 120% | 169% |
| C=C(c1ccc(C(=O)O)cc1)c1cc2c(cc1C)C(C)(C)CCC2(C)C [Bexarotene] + Cn1nnc2c(C(N)=O)ncn2c1=O [temozolomide] (first compound 2 µM, partner dose 2 µM) | 63.8% | 77.7% | 111% | 134% | 313% | 121% | 53.6% | 163% | 76.6% | 533% | 105% | 51.4% | 141% | 114% |
| Nc1ncn([C@H]2C[C@H](O)[C@@H](CO)O2)c(=O)n1 [decitabine] + C[C@]1(c2nc3c(C(N)=O)cccc3[nH]2)CCCN1 [Veliparib] (first compound 0.1 µM, partner dose 1.4 µM) | 28.4% | 79.4% | 55.4% | 151% | 62.8% | 128% | 132% | 144% | 114% | 88% | 80.1% | 41.7% | 107% | 88.1% |
| CCCS(=O)(=O)Nc1ccc(F)c(C(=O)c2c[nH]c3ncc(Cl)cc23)c1F + C#Cc1cccc(Nc2ncnc3cc(OCCOC)c(OCCOC)cc23)c1 [erlotinib] (first compound 0.08 µM, partner dose 0.8 µM) | 90.1% | 40.1% | 89% | 63.8% | 79.4% | 79.5% | 213% | 78.7% | 144% | 135% | 107% | 255% | 102% | 43.3% |
| CN1CCN(c2ccc3nc(-c4c(N)c5c(F)cccc5[nH]c4=O)[nH]c3c2)CC1 [Dovitinib] + Cn1nnc2c(C(N)=O)ncn2c1=O [temozolomide] (first compound 0.1 µM, partner dose 2 µM) | 249% | 134% | 119% | 117% | 112% | 111% | 273% | 160% | 134% | 87.6% | 121% | 223% | 87.5% | 237% |
| Nc1ccn([C@@H]2O[C@H](CO)[C@@H](O)C2(F)F)c(=O)n1 [gemcitabine] + Cc1nc(Nc2ncc(C(=O)Nc3c(C)cccc3Cl)s2)cc(N2CCN(CCO)CC2)n1 [dasatanib] (first compound 0.0004 µM, partner dose 0.004 µM) | 96.6% | 87.7% | 43% | 119% | 38.9% | 175% | 42.8% | 73.4% | 149% | 83.7% | 191% | 16.2% | 134% | 150% |
| Cc1cc(Nc2cc(N3CCN(C)CC3)nc(/C=C/c3ccccc3)n2)n[nH]1 + C#Cc1cccc(Nc2ncnc3cc(OCCOC)c(OCCOC)cc23)c1 [erlotinib] (first compound 0.04 µM, partner dose 0.8 µM) | 116% | 58% | 114% | 120% | 182% | 119% | 89.4% | 329% | 146% | 83% | 117% | 60.7% | 106% | 262% |
| CC(C)C[C@H](NC(=O)[C@H](Cc1ccccc1)NC(=O)c1cnccn1)B(O)O [Bortezomib] + C[C@]1(c2nc3c(C(N)=O)cccc3[nH]2)CCCN1 [Veliparib] (first compound 0.001 µM, partner dose 1.4 µM) | 145% | 84.8% | 219% | 99.4% | 71.6% | 201% | 42.9% | 615% | 212% | 138% | 188% | 39.7% | 665% | 116% |

A run of entries taken from the entries so far, as a working copy:

| SMILES | cleaved PARP positive nuclei fraction [1] | cleaved PARP positive nuclei fraction [2] | cleaved PARP positive nuclei fraction [3] | cleaved PARP positive nuclei fraction [4] | cleaved PARP positive nuclei fraction [5] | cleaved PARP positive nuclei fraction [6] | cleaved PARP positive nuclei fraction [7] | cleaved PARP positive nuclei fraction [8] | cleaved PARP positive nuclei fraction [9] | cleaved PARP positive nuclei fraction [10] | cleaved PARP positive nuclei fraction [11] | cleaved PARP positive nuclei fraction [12] | cleaved PARP positive nuclei fraction [13] | cleaved PARP positive nuclei fraction [14] |
| --- | --- | --- | --- | --- | --- | --- | --- | --- | --- | --- | --- | --- | --- | --- |
| Nc1ncn([C@H]2C[C@H](O)[C@@H](CO)O2)c(=O)n1 [decitabine] + C[C@]1(c2nc3c(C(N)=O)cccc3[nH]2)CCCN1 [Veliparib] (first compound 0.1 µM, partner dose 1.4 µM) | 28.4% | 79.4% | 55.4% | 151% | 62.8% | 128% | 132% | 144% | 114% | 88% | 80.1% | 41.7% | 107% | 88.1% |
| CCCS(=O)(=O)Nc1ccc(F)c(C(=O)c2c[nH]c3ncc(Cl)cc23)c1F + C#Cc1cccc(Nc2ncnc3cc(OCCOC)c(OCCOC)cc23)c1 [erlotinib] (first compound 0.08 µM, partner dose 0.8 µM) | 90.1% | 40.1% | 89% | 63.8% | 79.4% | 79.5% | 213% | 78.7% | 144% | 135% | 107% | 255% | 102% | 43.3% |
